Source: the supplement of paper PMC10849652
Some of the results follow.

Amino acid sequences for entries named in this document (tags omitted). A change or cut given only in a name is not applied to a line headed by its entry.
UniProt Q9H900: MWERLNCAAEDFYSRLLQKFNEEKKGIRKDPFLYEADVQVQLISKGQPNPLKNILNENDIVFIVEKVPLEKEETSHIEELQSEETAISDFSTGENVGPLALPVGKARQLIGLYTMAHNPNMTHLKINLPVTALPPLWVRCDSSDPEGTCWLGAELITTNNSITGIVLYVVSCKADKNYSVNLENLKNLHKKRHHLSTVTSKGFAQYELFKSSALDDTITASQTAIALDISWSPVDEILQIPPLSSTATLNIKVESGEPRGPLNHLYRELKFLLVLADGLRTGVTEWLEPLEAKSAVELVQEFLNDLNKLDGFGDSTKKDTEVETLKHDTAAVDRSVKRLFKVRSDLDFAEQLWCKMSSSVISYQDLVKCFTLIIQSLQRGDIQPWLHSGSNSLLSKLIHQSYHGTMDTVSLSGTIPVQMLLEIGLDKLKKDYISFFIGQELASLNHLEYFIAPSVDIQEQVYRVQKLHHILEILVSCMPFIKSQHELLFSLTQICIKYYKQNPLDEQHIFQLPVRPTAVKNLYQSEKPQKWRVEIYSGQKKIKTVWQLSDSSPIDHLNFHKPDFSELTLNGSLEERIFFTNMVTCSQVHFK
UniProt O95229: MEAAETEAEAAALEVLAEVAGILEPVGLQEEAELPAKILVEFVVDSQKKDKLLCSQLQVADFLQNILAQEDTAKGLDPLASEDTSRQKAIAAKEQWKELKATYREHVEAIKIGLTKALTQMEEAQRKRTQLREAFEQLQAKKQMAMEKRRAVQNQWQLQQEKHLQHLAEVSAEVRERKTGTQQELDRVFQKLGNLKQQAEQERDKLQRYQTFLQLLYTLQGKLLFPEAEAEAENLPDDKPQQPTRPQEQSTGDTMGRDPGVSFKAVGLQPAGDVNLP
UniProt Q9C0D3: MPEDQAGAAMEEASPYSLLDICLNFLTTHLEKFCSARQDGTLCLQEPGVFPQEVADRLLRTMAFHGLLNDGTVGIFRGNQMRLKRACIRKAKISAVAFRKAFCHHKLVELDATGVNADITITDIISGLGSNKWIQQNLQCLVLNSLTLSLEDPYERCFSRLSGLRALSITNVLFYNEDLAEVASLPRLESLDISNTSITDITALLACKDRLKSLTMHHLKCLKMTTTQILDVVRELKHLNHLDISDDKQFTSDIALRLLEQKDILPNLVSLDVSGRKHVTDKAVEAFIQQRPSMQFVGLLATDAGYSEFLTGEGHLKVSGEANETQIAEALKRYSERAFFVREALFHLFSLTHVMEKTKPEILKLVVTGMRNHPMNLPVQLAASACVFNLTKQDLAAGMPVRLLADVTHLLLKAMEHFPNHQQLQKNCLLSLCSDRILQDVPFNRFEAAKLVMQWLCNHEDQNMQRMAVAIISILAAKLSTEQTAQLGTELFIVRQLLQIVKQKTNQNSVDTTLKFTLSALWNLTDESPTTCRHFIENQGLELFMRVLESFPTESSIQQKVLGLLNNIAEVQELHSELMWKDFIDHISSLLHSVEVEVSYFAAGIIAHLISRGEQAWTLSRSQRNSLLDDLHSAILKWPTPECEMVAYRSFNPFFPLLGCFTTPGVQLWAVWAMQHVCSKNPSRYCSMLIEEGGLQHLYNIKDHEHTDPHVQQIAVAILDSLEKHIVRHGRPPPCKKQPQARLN
UniProt Q15942: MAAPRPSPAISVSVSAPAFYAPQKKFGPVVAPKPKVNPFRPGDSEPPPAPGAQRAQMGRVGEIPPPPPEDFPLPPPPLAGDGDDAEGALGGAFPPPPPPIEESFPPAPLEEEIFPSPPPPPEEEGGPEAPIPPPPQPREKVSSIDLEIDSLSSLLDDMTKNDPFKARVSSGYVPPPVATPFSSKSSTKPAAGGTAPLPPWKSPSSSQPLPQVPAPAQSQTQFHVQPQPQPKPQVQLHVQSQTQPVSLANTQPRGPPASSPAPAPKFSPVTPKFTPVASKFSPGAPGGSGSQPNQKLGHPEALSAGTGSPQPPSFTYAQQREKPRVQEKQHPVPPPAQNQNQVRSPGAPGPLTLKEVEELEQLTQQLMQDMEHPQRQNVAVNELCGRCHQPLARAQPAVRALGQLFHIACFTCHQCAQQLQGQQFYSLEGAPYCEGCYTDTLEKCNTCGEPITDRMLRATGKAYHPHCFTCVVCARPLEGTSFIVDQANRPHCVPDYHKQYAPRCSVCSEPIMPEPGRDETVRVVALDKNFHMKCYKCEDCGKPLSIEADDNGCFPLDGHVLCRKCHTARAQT
UniProt O43149: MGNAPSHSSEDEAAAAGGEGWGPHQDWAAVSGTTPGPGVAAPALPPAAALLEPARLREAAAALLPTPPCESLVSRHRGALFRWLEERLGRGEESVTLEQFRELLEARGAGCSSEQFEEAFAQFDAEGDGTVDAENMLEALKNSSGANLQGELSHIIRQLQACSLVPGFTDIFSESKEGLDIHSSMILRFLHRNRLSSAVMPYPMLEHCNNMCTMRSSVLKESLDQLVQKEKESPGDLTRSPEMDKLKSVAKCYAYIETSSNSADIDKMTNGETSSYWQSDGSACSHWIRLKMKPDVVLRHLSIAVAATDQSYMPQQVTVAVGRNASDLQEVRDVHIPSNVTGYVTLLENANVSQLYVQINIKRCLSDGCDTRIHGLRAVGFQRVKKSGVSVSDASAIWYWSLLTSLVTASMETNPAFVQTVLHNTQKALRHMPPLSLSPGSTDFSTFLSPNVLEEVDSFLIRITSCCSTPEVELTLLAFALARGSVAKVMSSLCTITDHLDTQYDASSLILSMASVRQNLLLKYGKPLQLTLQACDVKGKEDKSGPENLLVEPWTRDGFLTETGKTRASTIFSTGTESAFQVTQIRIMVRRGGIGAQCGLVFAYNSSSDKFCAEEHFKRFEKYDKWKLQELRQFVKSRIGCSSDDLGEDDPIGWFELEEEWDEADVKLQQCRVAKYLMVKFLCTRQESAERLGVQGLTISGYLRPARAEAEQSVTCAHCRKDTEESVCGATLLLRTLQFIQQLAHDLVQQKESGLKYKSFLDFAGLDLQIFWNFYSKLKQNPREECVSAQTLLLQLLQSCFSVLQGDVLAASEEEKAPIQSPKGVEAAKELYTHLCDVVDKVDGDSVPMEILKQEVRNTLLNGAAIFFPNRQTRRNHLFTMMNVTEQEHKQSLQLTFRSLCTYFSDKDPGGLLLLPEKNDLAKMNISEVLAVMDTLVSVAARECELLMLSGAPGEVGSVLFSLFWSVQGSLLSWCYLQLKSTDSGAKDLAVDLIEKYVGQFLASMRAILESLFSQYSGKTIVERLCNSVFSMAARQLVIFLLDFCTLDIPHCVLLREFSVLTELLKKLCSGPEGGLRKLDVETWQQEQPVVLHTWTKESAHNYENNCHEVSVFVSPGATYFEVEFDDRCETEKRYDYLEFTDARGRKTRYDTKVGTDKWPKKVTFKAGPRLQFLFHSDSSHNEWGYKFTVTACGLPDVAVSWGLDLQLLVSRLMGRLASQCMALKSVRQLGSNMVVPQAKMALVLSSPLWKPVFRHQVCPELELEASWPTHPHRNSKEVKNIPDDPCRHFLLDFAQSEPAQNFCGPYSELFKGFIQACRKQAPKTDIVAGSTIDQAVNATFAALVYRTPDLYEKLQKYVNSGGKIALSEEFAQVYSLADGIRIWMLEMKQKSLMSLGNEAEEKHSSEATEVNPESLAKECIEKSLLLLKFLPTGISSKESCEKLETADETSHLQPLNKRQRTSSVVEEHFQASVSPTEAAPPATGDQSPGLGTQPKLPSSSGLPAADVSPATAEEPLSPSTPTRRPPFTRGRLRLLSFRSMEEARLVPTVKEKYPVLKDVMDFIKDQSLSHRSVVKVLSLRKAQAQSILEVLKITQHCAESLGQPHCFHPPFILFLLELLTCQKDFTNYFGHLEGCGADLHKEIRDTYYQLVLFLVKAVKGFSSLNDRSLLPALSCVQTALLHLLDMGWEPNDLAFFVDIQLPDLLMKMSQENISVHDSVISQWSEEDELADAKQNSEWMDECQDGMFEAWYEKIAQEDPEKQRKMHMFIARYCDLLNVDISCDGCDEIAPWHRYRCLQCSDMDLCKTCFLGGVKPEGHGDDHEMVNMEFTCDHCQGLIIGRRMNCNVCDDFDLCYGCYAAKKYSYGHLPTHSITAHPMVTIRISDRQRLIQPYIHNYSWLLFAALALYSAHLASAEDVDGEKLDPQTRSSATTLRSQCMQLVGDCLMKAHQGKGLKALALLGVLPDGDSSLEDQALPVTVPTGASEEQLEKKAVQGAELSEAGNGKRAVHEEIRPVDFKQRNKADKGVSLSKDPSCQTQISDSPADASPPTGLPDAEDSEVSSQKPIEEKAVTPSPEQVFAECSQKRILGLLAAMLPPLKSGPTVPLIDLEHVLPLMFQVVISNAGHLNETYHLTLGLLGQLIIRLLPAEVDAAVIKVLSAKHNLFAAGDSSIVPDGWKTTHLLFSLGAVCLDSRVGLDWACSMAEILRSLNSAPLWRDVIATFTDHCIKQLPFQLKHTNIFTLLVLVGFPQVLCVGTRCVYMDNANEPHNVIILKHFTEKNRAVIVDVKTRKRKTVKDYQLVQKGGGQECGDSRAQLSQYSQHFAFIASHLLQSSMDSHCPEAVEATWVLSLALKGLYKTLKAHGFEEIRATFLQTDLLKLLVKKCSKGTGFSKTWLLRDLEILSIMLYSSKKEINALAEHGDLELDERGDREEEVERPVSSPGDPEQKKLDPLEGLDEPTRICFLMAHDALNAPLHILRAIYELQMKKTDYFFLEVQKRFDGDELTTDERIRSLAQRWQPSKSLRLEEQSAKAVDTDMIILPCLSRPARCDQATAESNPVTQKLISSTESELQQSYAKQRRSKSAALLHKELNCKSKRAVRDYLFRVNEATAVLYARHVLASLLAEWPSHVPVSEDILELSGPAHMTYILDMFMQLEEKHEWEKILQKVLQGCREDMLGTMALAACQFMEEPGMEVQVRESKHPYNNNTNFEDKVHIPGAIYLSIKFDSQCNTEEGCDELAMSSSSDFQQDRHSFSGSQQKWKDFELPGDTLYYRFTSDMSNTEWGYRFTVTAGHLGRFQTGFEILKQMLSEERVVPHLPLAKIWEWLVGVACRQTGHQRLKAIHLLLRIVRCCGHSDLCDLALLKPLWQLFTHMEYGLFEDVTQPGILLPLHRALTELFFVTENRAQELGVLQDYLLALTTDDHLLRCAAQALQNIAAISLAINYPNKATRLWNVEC

How the values were obtained:
Experiment in all cases: log2 fold change, soluble protein after heating vs DMSO (PISA); higher = thermal stabilisation; K562 cells, 10 uM, 30 min; active = over 0.2 and 3.5 SD of the protein, either way, in both replicates (recomputed)
ZWILCH = ZWILCH (UniProt Q9H900)
Summary of the method: (§1)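 Thermal stability values are relative to control samples and come from duplicates. They are expressed as log2 fold changes. For measurement, K562 cells (2×10^6 cells/mL) received 10 μM compound for 30 min, and aliquots were heated for 3 min over 48°C-58°C, pooled, and extracted at 4°C in PBS with 0.5% NP-40. Soluble protein, the supernatant after 21,000xg for 90 min, was quantified by TMTpro 16plex LC-MS/MS with equalised channel sums.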

ZWINT = ZWINT (UniProt O95229)
Summary of the method: as §1

ZYG11B = ZYG11B (UniProt Q9C0D3)
Summary of the method: as §1

ZYX = ZYX (UniProt Q15942)
Summary of the method: as §1

ZZEF1 = ZZEF1 (UniProt O43149)
Summary of the method: as §1

Measured: log2 fold change

Cc1ccc(NC(=O)c2cccc(N(C)C)c2)cc1NC(=O)c1ccc(O)cc1
inactive: ZWILCH 0.238 | ZWINT 0.006 | ZYG11B -0.018 | ZYX -0.034 | ZZEF1 = -0.04

CN1CCC(CNc2ccc3ncc(-c4cccc(OC(F)(F)F)c4)n3n2)CC1
inactive: ZWILCH -0.085 | ZWINT 0.035 | ZYG11B -0.113 | ZYX 0.015 | ZZEF1 = -0.02

O=C(Nc1nc2ccccc2n1CCN1CCOCC1)c1cccc([N+](=O)[O-])c1 [IRAK-1-4 Inhibitor I]
inactive: ZWILCH -0.042 | ZWINT -0.043 | ZYG11B 0.044 | ZYX 0.019 | ZZEF1 = 0.069

CC(C)N(C[C@H]1O[C@@H](n2cnc3c(N)ncnc32)[C@H](O)[C@@H]1O)[C@H]1C[C@@H](CCc2nc3cc(C(C)(C)C)ccc3[nH]2)C1 [pinometostat]
inactive: ZWILCH 0.074 | ZWINT -0.009 | ZYG11B 0.01 | ZYX -0.075 | ZZEF1 = 0.028

CN(C)CC(=O)Nc1ccc2[nH]c(=O)c3ccccc3c2c1
inactive: ZWILCH 0.051 | ZWINT -0.019 | ZYG11B -0.003 | ZYX -0.004 | ZZEF1 = -0.037

COC(=O)[C@H](CCSC)NC(=O)c1ccc(NC[C@@H](N)CS)cc1-c1ccccc1
inactive: ZWILCH -0.077 | ZWINT -0.011 | ZYG11B 0.013 | ZYX 0.01 | ZZEF1 = -0.045

Cc1ccc(NC(=O)c2ccc(CN3CC[C@H](N(C)C)C3)c(C(F)(F)F)c2)cc1Nc1nccc(-c2cncnc2)n1 [bafetinib]
inactive: ZWILCH -0.031 | ZWINT -0.012 | ZYX -0.058 | ZZEF1 = 0.037
active: ZYG11B -0.272

O=C(CCCCCCC(=O)Nc1ccccc1)NO [vorinostat]
inactive: ZWILCH 0.056 | ZWINT -0.009 | ZYG11B 0.053 | ZYX -0.017 | ZZEF1 = 0.1

Cc1ncc(-c2ccnc(Nc3ccc(S(C)(=O)=O)cc3)n2)n1C(C)C
inactive: ZWILCH 0.071 | ZWINT 0.021 | ZYG11B 0.037 | ZYX 0.015 | ZZEF1 = -0.081

CNc1nc(-c2ccc3c(N)n[nH]c3c2)cc(N2C[C@@H](C(=O)NC3CCCCC3)CC[C@H]2C)n1
inactive: ZWILCH -0.037 | ZWINT -0.135 | ZYG11B 0.002 | ZYX -0.036 | ZZEF1 = -0.004

CCCCN(Cc1ccc(C(=O)NO)cc1)C(=O)Nc1ccccc1 [Nexturastat A]
inactive: ZWILCH -0.008 | ZWINT 0.036 | ZYG11B -0.011 | ZYX -0.021 | ZZEF1 = 0.002

An excerpt from above in order of number of heavy atoms, smallest number first.
Cc1ncc(-c2ccnc(Nc3ccc(S(C)(=O)=O)cc3)n2)n1C(C)C
inactive: ZWILCH 0.071 | ZWINT 0.021 | ZYG11B 0.037 | ZYX 0.015 | ZZEF1 = -0.081

Cc1ccc(NC(=O)c2cccc(N(C)C)c2)cc1NC(=O)c1ccc(O)cc1
inactive: ZWILCH 0.238 | ZWINT 0.006 | ZYG11B -0.018 | ZYX -0.034 | ZZEF1 = -0.04

CNc1nc(-c2ccc3c(N)n[nH]c3c2)cc(N2C[C@@H](C(=O)NC3CCCCC3)CC[C@H]2C)n1
inactive: ZWILCH -0.037 | ZWINT -0.135 | ZYG11B 0.002 | ZYX -0.036 | ZZEF1 = -0.004

The listing continues:

Oc1cc(-c2nc(-c3ccccc3)[nH]c2-c2ccncc2)ccc1Cl
inactive: ZWILCH -0.002 | ZWINT 0.01 | ZYG11B 0.015 | ZYX 0.016 | ZZEF1 = -0.012

Cc1ccc(C(=O)N(CCCN)[C@@H](c2nc3cc(Cl)ccc3c(=O)n2Cc2ccccc2)C(C)C)cc1 [ispinesib]
inactive: ZWILCH -0.045 | ZWINT -0.016 | ZYG11B 0.041 | ZYX 0.021 | ZZEF1 = -0.003

CON(C)C(=O)N1N=C(c2cc(F)ccc2F)S[C@@]1(CCCN)c1ccccc1 [filanesib]
inactive: ZWILCH 0.016 | ZWINT 0.02 | ZYG11B 0.014 | ZYX -0.033 | ZZEF1 = -0.008

O=C1NC(=O)C(c2cnc3ccccn23)=C1c1cn2c3c(cc(F)cc13)CN(C(=O)N1CCCCC1)CC2
inactive: ZWILCH 0.051 | ZWINT 0.002 | ZYG11B 0.019 | ZYX -0.021 | ZZEF1 = -0.001

Cc1nc(Nc2ncc(C(=O)Nc3c(C)cccc3Cl)s2)cc(N2CCN(CCO)CC2)n1 [dasatinib]
inactive: ZWILCH -0.05 | ZWINT 0.081 | ZYG11B -0.017 | ZYX 0.027 | ZZEF1 = -0.013

CC(C)(C)Cn1c(N)nc2ccc(-c3[nH]c(C(C)(C)C)nc3-c3ccc(F)cc3)nc21 [ralimetinib]
inactive: ZWILCH 0.049 | ZWINT 0.042 | ZYG11B -0.046 | ZYX -0.031 | ZZEF1 = 0.008

Cn1cc(-c2ccc3c(c2)CCN3C(=O)Cc2cccc(C(F)(F)F)c2)c2c(N)ncnc21
inactive: ZWILCH -0.057 | ZWINT -0.057 | ZYG11B 0.063 | ZYX 0.021 | ZZEF1 = -0.058

NCC(=O)Nc1ccc(-n2nc(C(F)(F)F)cc2-c2ccc3c(ccc4ccccc43)c2)cc1
inactive: ZWILCH -0.068 | ZWINT -0.009 | ZYG11B -0.045 | ZYX 0.006 | ZZEF1 = -0.026

Cc1nc(Nc2n[nH]c3c2CN(C(=O)N[C@H](CN(C)C)c2ccccc2)C3(C)C)c2sccc2n1
inactive: ZWILCH -0.042 | ZWINT 0.019 | ZYG11B 0.026 | ZYX -0.006 | ZZEF1 = 0.028

CC[C@@H]1C(=O)N(C)c2cnc(Nc3ccc(C(=O)NC4CCN(C)CC4)cc3OC)nc2N1C1CCCC1
inactive: ZWILCH -0.078 | ZWINT 0.017 | ZYG11B -0.031 | ZYX -0.015 | ZZEF1 = -0.042

Fc1ccc(Cl)cc1-c1nc(Nc2ccncc2)c2nccnc2n1
inactive: ZWILCH -0.013 | ZWINT -0.063 | ZYG11B 0.013 | ZYX 0.03 | ZZEF1 = 0.037

CCn1cc(-c2ccnc3[nH]c(-c4cccc(CN(C)C)c4)cc23)c(-c2ccc(NC(=O)N(C)C)cc2)n1
inactive: ZWILCH 0.01 | ZWINT 0.007 | ZYG11B -0.085 | ZYX -0.014 | ZZEF1 = -0.067

C[C@@H](Oc1cc(-c2cnn(C3CCNCC3)c2)cnc1N)c1c(Cl)ccc(F)c1Cl [crizotinib]
inactive: ZWILCH -0.068 | ZWINT 0.071 | ZYG11B -0.031 | ZYX 0 | ZZEF1 = -0.016

CC[C@H](C)n1cc(C)c2c(C(=O)NCc3c(C)cc(C)[nH]c3=O)cc(-c3ccc(N4CCNCC4)nc3)cc21
inactive: ZWILCH 0.048 | ZWINT 0.027 | ZYG11B 0.101 | ZYX -0.037 | ZZEF1 = -0.014

Cc1cccc(-c2[nH]c(C(C)(C)C)nc2-c2ccc3nccnc3c2)n1
inactive: ZWILCH 0 | ZWINT -0.02 | ZYG11B -0.039 | ZYX -0.001 | ZZEF1 = -0.037

O=C1NC(=O)/C(=C\c2ccc3nccnc3c2)S1
inactive: ZWILCH 0.056 | ZWINT 0.07 | ZYG11B -0.084 | ZYX 0.009 | ZZEF1 = 0.071

CC[C@H](C)[C@H](NC(=O)[C@H]([C@@H](C)CC)N(C)C(C)=O)C(=O)N[C@H](C(=O)N[C@@H](CC(C)C)C(=O)[C@@]1(C)CO1)[C@@H](C)O [epoxomicin]
inactive: ZWILCH 0.013 | ZWINT 0.095 | ZYG11B 0.123 | ZYX 0.038 | ZZEF1 = 0.001

COc1cc2ncnc(Nc3ccc(F)c(Cl)c3)c2cc1OCCCN1CCOCC1 [gefitinib]
inactive: ZWILCH 0.125 | ZWINT -0.027 | ZYG11B 0.042 | ZYX -0.005 | ZZEF1 = 0.026

Cc1cn(-c2cc(NC(=O)c3ccc(C)c(Nc4nccc(-c5cccnc5)n4)c3)cc(C(F)(F)F)c2)cn1 [nilotinib]
inactive: ZWILCH -0.047 | ZWINT -0.061 | ZYG11B 0.025 | ZYX 0.015 | ZZEF1 = -0.051

Cc1ccc(NC(=O)c2cccc(C(C)(C)C#N)c2)cc1Nc1ccc2ncn(C)c(=O)c2c1
inactive: ZWILCH 0 | ZWINT 0.034 | ZYG11B -0.006 | ZYX -0.008 | ZZEF1 = 0.014

FC(F)(F)c1ccc(/C=C/c2nc(COc3ccc(CCCCn4ccnn4)cc3)co2)cc1 [mubritinib]
inactive: ZWILCH 0.037 | ZWINT -0.017 | ZYG11B 0.01 | ZYX 0.021 | ZZEF1 = 0.022

Cc1cccc(CC(=O)N2CCc3c2ccc(-c2cn(C)c4ncnc(N)c24)c3F)n1
inactive: ZWILCH 0.027 | ZWINT -0.003 | ZYG11B -0.031 | ZYX 0 | ZZEF1 = 0.015

O=C(O)c1ccc2c(c1)nc(Nc1cccc(Cl)c1)c1ccncc12 [silmitasertib]
inactive: ZWILCH 0.059 | ZWINT 0.069 | ZYG11B 0 | ZYX -0.023 | ZZEF1 = 0.003
